PubChem BioAssay AID1224828, NIAID – 2016

- Assay: 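Regulators linking TLR4 signalling to p65 nuclear translocation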 (primary screen)
- Cell system: mouse RAW264.7 G9 macrophage reporter cells (GFP-p65, Tnf promoter-mCherry)
- Reagent: siRNA pool against mouse genes, 100 nM
- Time to read-out: 2 days siRNA transfection, then 40 min LPS before fixation
- Conditions: LPS (Salmonella minnesota R595) at 10 ng/ml
- Read-out: 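Imaged p65 nuclear translocation ratio, normalised to the plate median, converted to robust z-scores and averaged across two replicates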
- Reading the numbers: p65 translocation robust z-score: higher = more nuclear NF-kappaB p65 after LPS than the plate median; nuclear/cytoplasmic p65 ratio: higher = more nuclear NF-kappaB p65
- Hit rule: 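Called active when z exceeds 3.3 or falls under -1.56 (median of Tlr4 controls), giving activity score of at least 50; no calls for control wells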
- Calls: active = hit (p65 shift raised or lowered); inactive = no clear change
Here is an unselected part of about 17,000 deposited reagents. Of all reagents, 762 (4.5%) were called active. 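Active calls include both raised and lowered p65 entry, mostly lowered; wells with fewer than 50 cells lack a z-score.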 Raw values vary from plate to plate and are shown uncorrected.

| gene | PubChem SID | p65 translocation robust z-score | nuclear/cytoplasmic p65 ratio, rep 1 | nuclear/cytoplasmic p65 ratio, rep 2 | low cell count flag | activity call |
| --- | --- | --- | --- | --- | --- | --- |
| Ktn1 (kinectin 1) | SID315467709 | -1.06 | 1.36 | 1.21 | enough cells to score | inactive |
| Tmem177 (transmembrane protein 177) | SID315472375 | – | 1.21 | 1.15 | fewer than 50 cells per well; well left out of scoring | inactive |
| Celf3 (CUGBP, Elav-like family member 3) | SID315475618 | 0.84 | 1.46 | 1.29 | enough cells to score | inactive |
| Dpp4 (dipeptidylpeptidase 4) | SID315466374 | 0.33 | 1.56 | 1.39 | enough cells to score | inactive |
| Gapvd1 (GTPase activating protein and VPS9 domains 1) | SID315472588 | – | 1.27 | 1.37 | fewer than 50 cells per well; well left out of scoring | inactive |
| Wee1 (WEE 1 homolog 1 (S. pombe)) | SID315470030 | – | 1.86 | 1.64 | fewer than 50 cells per well; well left out of scoring | inactive |
| Gucy2f (guanylate cyclase 2f) | SID315479834 | 0.25 | 1.82 | 1.34 | enough cells to score | inactive |
| Plk3 (polo like kinase 3) | SID315466030 | -0.75 | 1.65 | 1.22 | enough cells to score | inactive |
| Zcchc3 (zinc finger, CCHC domain containing 3) | SID315473309 | 5.11 | 1.95 | 2.14 | enough cells to score | active |
| Mrpl11 (mitochondrial ribosomal protein L11) | SID315472433 | -0.04 | 1.78 | 1.58 | enough cells to score | inactive |
| Arsg (arylsulfatase G) | SID315474810 | -0.74 | 1.3 | 1.33 | enough cells to score | inactive |
| Gpatch11 (G patch domain containing 11) | SID315471136 | – | 1.31 | 1.24 | fewer than 50 cells per well; well left out of scoring | inactive |
| Hlcs | SID315476953 | 1.49 | 1.64 | 1.56 | enough cells to score | inactive |
| Or52s1 (olfactory receptor family 52 subfamily S member 1) | SID315480063 | -0.8 | 1.35 | 1.16 | enough cells to score | inactive |
| Or1e26 (olfactory receptor family 1 subfamily E member 26) | SID315480633 | 1.02 | 1.73 | 1.59 | enough cells to score | inactive |
| Tmcc1 (transmembrane and coiled coil domains 1) | SID315481592 | 1.83 | 1.83 | 1.94 | enough cells to score | inactive |
| Or4c123 (olfactory receptor family 4 subfamily C member 123) | SID315480432 | -1.88 | 1.46 | 1.22 | enough cells to score | active |
| Or10x1 (olfactory receptor family 10 subfamily X member 1) | SID315479944 | 1.28 | 1.44 | 1.42 | enough cells to score | inactive |
| Tspan8 (tetraspanin 8) | SID315477995 | -1.11 | 1.21 | 1.07 | enough cells to score | inactive |
| Sat1 (spermidine/spermine N1-acetyl transferase 1) | SID315469100 | 0.62 | 1.63 | 1.58 | enough cells to score | inactive |
| Krtap13-1 (keratin associated protein 13-1) | SID315480811 | -0.65 | 1.32 | 1.41 | enough cells to score | inactive |
| Fndc3a (fibronectin type III domain containing 3A) | SID315481090 | 0.2 | 1.59 | 1.52 | enough cells to score | inactive |
| Cep78 (centrosomal protein 78) | SID315477536 | 1.33 | 1.52 | 1.64 | enough cells to score | inactive |
| Kcnc4 | SID315476194 | 0.12 | 1.53 | 1.36 | enough cells to score | inactive |
| Amn (amnionless) | SID315475975 | 0.09 | 1.64 | 1.63 | enough cells to score | inactive |
| Usp54 (ubiquitin specific peptidase 54) | SID315475620 | -1.03 | 1.25 | 1.12 | enough cells to score | inactive |
| Usp54 (ubiquitin specific peptidase 54) | SID315481156 | 1.75 | 1.67 | 1.72 | enough cells to score | inactive |
| Sertad2 (SERTA domain containing 2) | SID315471851 | 0.52 | 1.57 | 1.68 | enough cells to score | inactive |
| Scai (suppressor of cancer cell invasion) | SID315481275 | 1.48 | 1.48 | 1.83 | enough cells to score | inactive |
| Actn2 (actinin alpha 2) | SID315465273 | -0.23 | 1.58 | 1.59 | enough cells to score | inactive |
| Amh (anti-Mullerian hormone) | SID315465405 | -0.48 | 1.57 | 1.53 | enough cells to score | inactive |
| Ifitm10 (interferon induced transmembrane protein 10) | SID315481399 | -1.61 | 1.2 | 1.2 | enough cells to score | active |
| Tmem120a (transmembrane protein 120A) | SID315477917 | – | 1.48 | 1.05 | fewer than 50 cells per well; well left out of scoring | inactive |
| Btnl1 (butyrophilin-like 1) | SID315479483 | 1.99 | 1.87 | 1.9 | enough cells to score | inactive |
| Klf8 (Kruppel-like transcription factor 8) | SID315479835 | 0.13 | 1.67 | 1.59 | enough cells to score | inactive |
| Or8b39 (olfactory receptor family 8 subfamily B member 39) | SID315480099 | 0.12 | 1.61 | 1.28 | enough cells to score | inactive |
| Ubxn1 (UBX domain protein 1) | SID315478448 | -0.04 | 1.55 | 1.55 | enough cells to score | inactive |
| Pkhd1l1 (polycystic kidney and hepatic disease 1-like 1) | SID315477395 | -0.05 | 1.38 | 1.2 | enough cells to score | inactive |
| Rtraf (RNA transcription, translation and transport factor) | SID315473385 | 0.25 | 1.45 | 1.48 | enough cells to score | inactive |
| Mrpl28 (mitochondrial ribosomal protein L28) | SID315473580 | -0.19 | 1.44 | 1.32 | enough cells to score | inactive |
| Chrna6 (cholinergic receptor, nicotinic, alpha polypeptide 6) | SID315465257 | 0.01 | 1.48 | 1.37 | enough cells to score | inactive |
| Mmachc (methylmalonic aciduria cblC type, with homocystinuria) | SID315472832 | – | 1.15 | 1.12 | fewer than 50 cells per well; well left out of scoring | inactive |
| Slc24a1 | SID315477842 | 0.01 | 1.41 | 1.25 | enough cells to score | inactive |
| Exd2 (exonuclease 3'-5' domain containing 2) | SID315476109 | 0.03 | 1.56 | 1.83 | enough cells to score | inactive |
| Mif | SID315467923 | 1.29 | 1.52 | 1.59 | enough cells to score | inactive |
| Cyp2c23 (cytochrome P450, family 2, subfamily c, polypeptide 23) | SID315478473 | -1.91 | 1.23 | 1.6 | enough cells to score | active |
| C87436 (expressed sequence C87436) | SID315478965 | 0.63 | 1.67 | 1.9 | enough cells to score | inactive |
| Ap3m1 (adaptor-related protein complex 3, mu 1 subunit) | SID315471313 | 2.34 | 1.83 | 1.96 | enough cells to score | inactive |
| Ms4a8a (membrane-spanning 4-domains, subfamily A, member 8A) | SID315472095 | 1.19 | 1.6 | 1.56 | enough cells to score | inactive |
| Gucy2e (guanylate cyclase 2e) | SID315467082 | 0.89 | 1.86 | 1.48 | enough cells to score | inactive |
| Cabp7 (calcium binding protein 7) | SID315477416 | -3.01 | 1.18 | 1.25 | enough cells to score | active |
| Hsd17b11 (hydroxysteroid (17-beta) dehydrogenase 11) | SID315477031 | -0.13 | 1.47 | 1.35 | enough cells to score | inactive |
| Nt5m (5',3'-nucleotidase, mitochondrial) | SID315476398 | -0.11 | 1.72 | 1.5 | enough cells to score | inactive |
| Mcf2 (mcf.2 transforming sequence) | SID315476856 | 0.16 | 1.5 | 1.33 | enough cells to score | inactive |
| Itprid2 (ITPR interacting domain containing 2) | SID315474092 | 0.52 | 1.46 | 1.32 | enough cells to score | inactive |
| Myo1d (myosin ID) | SID315481676 | 2.09 | 1.79 | 1.76 | enough cells to score | inactive |
| Or4d10c (olfactory receptor family 4 subfamily D member 10C) | SID315480450 | 1.1 | 1.7 | 1.63 | enough cells to score | inactive |
| Or7a39 (olfactory receptor family 7 subfamily A member 39) | SID315481949 | -0.04 | 1.62 | 1.42 | enough cells to score | inactive |
| Glt8d1 (glycosyltransferase 8 domain containing 1) | SID315475325 | -1.63 | 1.18 | 1.08 | enough cells to score | active |
